Results are given in words; binding and its absence hold for the method and conditions named. In cells and extracts the contact can be indirect. Some results given as binding are weak or reduced against the parent protein; the word gives no strength.
Target: GFP-Zasp52 (endogenous GFP fusion, line G00189) (Drosophila melanogaster (endogenous in adult fly thoraces)) (UniProt A1ZA47)
Test: co-IP; extracts of 50 adult fly thoraces in 25 mM Tris-HCl pH 8, 150 mM NaCl, 1 mM EDTA, 0.5% TritonX-100, 5% glycerol; GFP-Trap-M anti-GFP beads, 2 h at 4°C; immunoblot

Sequences of proteins named here, by UniProt entry; tags and fusion partners are left off. A change or cut given only in a name is not applied to a line headed by its entry. A line that says so, or that is headed by a name, gives the form on record, which may keep a tag or linker.
UniProt A1ZA47: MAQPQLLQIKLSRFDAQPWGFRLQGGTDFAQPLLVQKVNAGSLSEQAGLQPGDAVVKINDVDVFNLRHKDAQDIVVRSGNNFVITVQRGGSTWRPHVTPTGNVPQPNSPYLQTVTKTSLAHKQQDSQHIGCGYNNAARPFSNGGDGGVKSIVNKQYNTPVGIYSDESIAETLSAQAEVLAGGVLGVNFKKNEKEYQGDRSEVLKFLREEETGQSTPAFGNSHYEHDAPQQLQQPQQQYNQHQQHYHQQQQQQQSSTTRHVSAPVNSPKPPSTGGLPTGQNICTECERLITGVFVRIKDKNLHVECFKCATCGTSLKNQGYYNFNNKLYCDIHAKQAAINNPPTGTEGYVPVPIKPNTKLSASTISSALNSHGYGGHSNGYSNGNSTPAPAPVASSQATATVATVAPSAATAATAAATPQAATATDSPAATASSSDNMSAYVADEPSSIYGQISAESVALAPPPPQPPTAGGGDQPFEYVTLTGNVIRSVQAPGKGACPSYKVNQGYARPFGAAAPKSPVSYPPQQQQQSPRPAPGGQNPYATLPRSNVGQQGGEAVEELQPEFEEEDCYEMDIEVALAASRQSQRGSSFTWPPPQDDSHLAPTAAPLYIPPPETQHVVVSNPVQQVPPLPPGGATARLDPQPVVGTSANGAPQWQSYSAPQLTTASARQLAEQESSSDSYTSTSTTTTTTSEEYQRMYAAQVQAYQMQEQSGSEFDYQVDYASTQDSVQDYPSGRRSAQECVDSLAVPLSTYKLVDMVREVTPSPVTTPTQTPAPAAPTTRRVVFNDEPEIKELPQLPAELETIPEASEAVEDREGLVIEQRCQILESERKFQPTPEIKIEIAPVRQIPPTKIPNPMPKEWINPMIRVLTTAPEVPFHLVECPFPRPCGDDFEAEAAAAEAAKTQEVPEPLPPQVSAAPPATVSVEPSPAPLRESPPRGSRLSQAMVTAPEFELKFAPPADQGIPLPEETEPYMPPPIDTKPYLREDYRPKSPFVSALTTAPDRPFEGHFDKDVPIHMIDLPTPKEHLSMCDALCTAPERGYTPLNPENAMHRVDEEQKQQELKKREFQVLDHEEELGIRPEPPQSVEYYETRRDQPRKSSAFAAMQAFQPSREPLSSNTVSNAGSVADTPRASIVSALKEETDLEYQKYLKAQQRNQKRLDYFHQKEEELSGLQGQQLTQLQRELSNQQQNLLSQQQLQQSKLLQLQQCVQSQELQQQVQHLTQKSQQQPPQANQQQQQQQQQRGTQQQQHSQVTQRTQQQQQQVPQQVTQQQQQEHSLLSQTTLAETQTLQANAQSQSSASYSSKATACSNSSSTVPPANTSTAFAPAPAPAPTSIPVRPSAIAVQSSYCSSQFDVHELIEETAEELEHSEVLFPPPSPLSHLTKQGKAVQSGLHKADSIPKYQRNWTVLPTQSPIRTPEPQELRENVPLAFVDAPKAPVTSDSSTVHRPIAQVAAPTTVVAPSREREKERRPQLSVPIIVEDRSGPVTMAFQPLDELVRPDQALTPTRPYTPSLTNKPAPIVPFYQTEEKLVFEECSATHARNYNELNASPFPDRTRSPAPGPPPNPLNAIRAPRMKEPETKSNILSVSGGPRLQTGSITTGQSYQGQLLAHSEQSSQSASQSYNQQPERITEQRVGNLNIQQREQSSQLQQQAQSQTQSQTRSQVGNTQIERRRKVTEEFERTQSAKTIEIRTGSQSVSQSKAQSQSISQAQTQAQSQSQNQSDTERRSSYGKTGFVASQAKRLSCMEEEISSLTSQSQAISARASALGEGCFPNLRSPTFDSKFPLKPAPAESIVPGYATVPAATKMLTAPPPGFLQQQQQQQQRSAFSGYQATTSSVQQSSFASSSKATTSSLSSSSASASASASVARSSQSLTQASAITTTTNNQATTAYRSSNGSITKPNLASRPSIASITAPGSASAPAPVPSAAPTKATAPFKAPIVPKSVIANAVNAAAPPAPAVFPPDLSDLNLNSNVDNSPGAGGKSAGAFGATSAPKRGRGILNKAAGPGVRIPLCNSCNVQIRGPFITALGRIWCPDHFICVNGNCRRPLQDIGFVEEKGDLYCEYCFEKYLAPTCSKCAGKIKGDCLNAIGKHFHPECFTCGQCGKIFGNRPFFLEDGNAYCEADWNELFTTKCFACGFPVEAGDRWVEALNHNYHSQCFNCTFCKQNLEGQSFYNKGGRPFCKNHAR
α-actinin (endogenous, Drosophila) (P18091, form named): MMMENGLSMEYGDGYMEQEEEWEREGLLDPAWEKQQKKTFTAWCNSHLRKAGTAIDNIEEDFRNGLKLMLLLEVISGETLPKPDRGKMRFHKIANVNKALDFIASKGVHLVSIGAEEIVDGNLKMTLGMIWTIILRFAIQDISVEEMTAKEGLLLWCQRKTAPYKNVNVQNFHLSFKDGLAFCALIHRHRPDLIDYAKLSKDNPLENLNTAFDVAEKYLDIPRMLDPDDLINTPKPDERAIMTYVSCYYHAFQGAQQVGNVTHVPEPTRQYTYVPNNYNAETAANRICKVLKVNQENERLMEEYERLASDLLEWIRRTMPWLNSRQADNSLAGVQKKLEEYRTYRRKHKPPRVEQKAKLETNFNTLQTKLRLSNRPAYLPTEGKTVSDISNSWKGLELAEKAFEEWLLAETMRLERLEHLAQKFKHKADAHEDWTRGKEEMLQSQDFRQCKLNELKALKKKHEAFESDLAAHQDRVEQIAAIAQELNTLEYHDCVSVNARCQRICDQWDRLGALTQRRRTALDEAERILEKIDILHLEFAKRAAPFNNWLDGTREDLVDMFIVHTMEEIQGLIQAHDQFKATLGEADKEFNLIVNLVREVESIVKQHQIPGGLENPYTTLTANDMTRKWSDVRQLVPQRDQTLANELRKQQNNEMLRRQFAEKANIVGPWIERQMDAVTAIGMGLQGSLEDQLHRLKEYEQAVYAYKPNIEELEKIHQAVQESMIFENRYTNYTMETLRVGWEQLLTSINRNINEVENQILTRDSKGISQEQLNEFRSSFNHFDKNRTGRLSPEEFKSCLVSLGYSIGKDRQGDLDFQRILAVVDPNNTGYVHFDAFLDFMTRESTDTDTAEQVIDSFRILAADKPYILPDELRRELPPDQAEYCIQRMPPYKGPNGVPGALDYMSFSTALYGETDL

For “α-actinin (endogenous, Drosophila) (from UniProt P18091 1-917)”, the binding was “binds”.

Reference: publication PMC3591300
